Screen size: about 360,000 compounds; about 7,500 (2.1%) were called active. The shares of active, inactive and inconclusive entries below differ from those in the screen. Calls come from the whole dose curve; as a rule, active = well fitted inhibition curve with a large enough effect; inconclusive = small, poorly fitted or top-dose-only effect, or effect the other way; inactive = flat fitted curve, though single readings scatter. A potency beside an inconclusive call is a rough fit, not a confirmed value.
Experiment: Nrf2 qHTS screen for inhibitors; note: nearly all actives have a fitted effect of over 60% in size
Settings: A549 ARE-Fluc reporter, luciferase luminescence, 18-24 h; activity change, negative = inhibition: at 46 µM (top of the series)
Procedure, shortened: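 Two sequential reads on A549 ARE_Fluc cells exposed to compound for 18-24 h: a CellTiter-Fluor fluorescence read for viability, then a luciferase luminescence read for Nrf2/ARE activity.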
% is set by controls: 0 for no effect and ±100 for the full control effect; potency is the fitted concentration of half-maximal effect.

Row | Structure (SMILES) | activity change, negative = inhibition | Potency
1 | O=C(CSc1nc2ccccc2s1)N1N=C(c2cccs2)CC1c1ccc(F)cc1 (centres undefined) | inactive: -25.7% | 
2 | COn1c(-c2ccc(Cl)cc2)nc2ccc(Cl)cc21 |  | inconclusive: 16.4 µM [activator, single point]
3 | O=C(O)c1nc2ccccc2nc1C(=O)O |  | inconclusive: 5.8 µM [activator, full curve]
4 | O=C(COc1ccccc1)NC1CCSC1=O (centres undefined) | inactive: -15.6% | 
5 | CCN(CC)CCn1nc2c3c(cccc3c1=O)-c1ccccc1-2 |  | inconclusive: 25.9 µM [falling, single point]
6 | Cc1nn(C)c(C)c1CNC(=O)c1cnn2c1NC(c1ccccc1)CC2C(F)(F)F (centres undefined) | inactive: 1.45% | 
7 | N#CC1=C2SCN(c3ccccc3)CN2C(=O)CC1c1cccs1 (centres undefined) |  | inconclusive: 14.6 µM [activator, partial curve, poor fit]
8 | N#Cc1ccc(OCc2cccc(S(=O)(=O)N3CCOCC3)c2)cc1 |  | inconclusive: 5.8 µM [falling, partial curve, poor fit]
9 | c1ccc(CCn2c(C3CC3)nc3ccccc32)cc1 |  | inconclusive: 3.66 µM [falling, full curve, poor fit]
10 | COc1ccccc1N1CCN(CC(=O)Nc2ccnn2C2CCCC2)CC1 |  | inconclusive: 18.4 µM [falling, single point]
11 | NC(=O)c1nsc(C(=O)N(Cc2ccc(F)cc2)C(C(=O)NC2CCCC2)c2ccco2)c1N (centres undefined) |  | inconclusive: 20.6 µM [falling, partial curve, poor fit]
12 | CC(C(=O)O)n1nc(-c2ccccc2)c2ccccc21 (centres undefined) | inactive: -23.3% | 
13 | O=C(Nc1cccc(F)c1)c1ccc2c(c1)OCCO2 |  | inconclusive: 0.366 µM [activator, full curve, poor fit]
14 | CCCC(C(=O)NCC1CCCO1)N(Cc1ccco1)C(=O)CNS(=O)(=O)c1ccc(F)cc1 (centres undefined) |  | inconclusive: 2.31 µM [activator, full curve, poor fit]
15 | COc1cc(/C=C/c2ccc3cccc([N+](=O)[O-])c3n2)ccc1OCC#N | inactive: -14% | 
16 | Cc1ccc(/C=C/C(=O)OC(C)C(=O)Nc2ccc(Cl)cn2)o1 (centres undefined) | inactive: 2.41% | 
17 | O=C(Nc1ccccc1Cl)N1CCn2c(nc3ccccc32)C1 |  | inconclusive: 0.517 µM [falling, full curve]
18 | CN1CCc2c(sc(NC(=O)c3cc(Cl)sc3Cl)c2C(N)=O)C1 | inactive: 4.79% | 
19 | c1ccc2c(c1)OCc1cn[nH]c1-2 | inactive: 4.38% | 
20 | CCCc1c(C)c2cccc(C)c2[nH]c1=O |  | inconclusive: 13 µM [falling, partial curve, poor fit]
21 | CC(C)c1ccc(NC(=O)COc2ccc(F)cc2C(=O)c2cnn(-c3ccccc3)c2)cc1 |  | inconclusive: 9.2 µM [activator, partial curve]
22 | O=c1[nH]cc(C#Cc2ccccc2)c2ncncc12 |  | inconclusive: 8.2 µM [activator, partial curve]

An excerpt from above in order of molecular weight, low to high.
Row | Structure (SMILES) | activity change, negative = inhibition | Potency
3 | O=C(O)c1nc2ccccc2nc1C(=O)O |  | inconclusive: 5.8 µM [activator, full curve]
17 | O=C(Nc1ccccc1Cl)N1CCn2c(nc3ccccc32)C1 |  | inconclusive: 0.517 µM [falling, full curve]
21 | CC(C)c1ccc(NC(=O)COc2ccc(F)cc2C(=O)c2cnn(-c3ccccc3)c2)cc1 |  | inconclusive: 9.2 µM [activator, partial curve]

Remaining list, next part.

Row | Structure (SMILES) | activity change, negative = inhibition | Potency
23 | O=C(Nc1nc2c(F)cc(F)cc2s1)c1ccco1 |  | inconclusive: 23.1 µM [activator, partial curve]
24 | Cc1cccc(OCC(=O)Nc2ccc(-c3nc4cc(C)ccc4o3)c(O)c2)c1 | inactive: -8.01% | 
25 | O=S(=O)(Nc1cccc(-n2cnnn2)c1)c1cc(Br)ccc1Br |  | inconclusive: 13 µM [falling, partial curve, poor fit]
26 | O=C(NC(=S)Nc1nc2c(s1)CCCC2)c1ccccc1 |  | inconclusive: 4.11 µM [activator, partial curve, poor fit]
27 | O=C(CN1C(=O)C2CCCCC2C1=O)Nc1nc(-c2ccccn2)cs1 (centres undefined) |  | inconclusive: 29.1 µM [falling, single point]
28 | CCOc1ccc(-n2c(SCC(=O)NCc3ccco3)nc3c(c2=O)SCC3)cc1 |  | inconclusive: 11.6 µM [falling, partial curve, poor fit]
29 | COc1ccc(/C=N/Nc2nc3ccccc3c(=O)n2-c2ccccc2)cc1OC |  | inconclusive: 32.6 µM [falling, single point]
30 | O=C1C=C(Nc2cccnc2)c2ccccc2C1=O |  | inconclusive: 16.4 µM [falling, single point]
31 | CCn1cc2nc(SCc3ccc(C)cc3)n(CCc3ccccc3)c(=O)c2n1 |  | active: 20.6 µM
32 | COc1ccc(S(=O)(=O)N(CC(=O)N(C)Cc2ccccc2)c2ccc(Cl)cc2)cc1 | inactive: -8.37% | 
33 | Cc1ccc(OCC(=O)Nc2ccc(Cl)c(-c3nc4ccccc4[nH]3)c2)cc1C |  | inconclusive: 20.6 µM [falling, single point]
34 | O=C(Nc1ccc2nc(C3CC3)n(Cc3ccc(F)cc3)c(=O)c2c1)c1ccco1 |  | inconclusive: 15.8 µM [falling, single point]
35 | CN(CCc1ccccn1)C(=O)CCc1nnc(CCCc2ccccc2)o1 |  | inconclusive: 23.1 µM [activator, partial curve]
36 | Cn1cc(C(=O)NCc2ccc(Cl)cc2)c(=O)c2cc(S(=O)(=O)N3CCCCCC3)ccc21 | inactive: -0.243% | 
37 | CC(=O)c1sc(NC(=O)c2ccc3c(c2)OCO3)nc1C | inactive: 14.9% | 
38 | COc1ccc(CCNc2c(C)c(C)nc3ncnn23)cc1 |  | active: 1.03 µM
39 | CC(C)(C)C1N=C(c2ccc3ccccc3c2)OC1=O (centres undefined) |  | inconclusive: 6.51 µM [falling, single point]
40 | COc1ccc(-c2ccnc3nc(N4CCN(c5ccccc5)CC4)nn23)cc1 |  | inconclusive: 2.31 µM [falling, full curve, poor fit]
41 | Cc1cccc(OCC(=O)N(Cc2ccccc2)c2c(N)n(Cc3ccccc3)c(=O)[nH]c2=O)c1 |  | inconclusive: 1.84 µM [falling, full curve]
42 | CCCCC(=NCCc1c(C)[nH]c2ccc(OC)cc12)C1=C(O)CC(c2ccccc2)CC1=O (centres undefined) |  | inconclusive: 5.8 µM [falling, partial curve, poor fit]
43 | COc1ccc(-c2cn(-c3ccc(OC)cc3)c3[n+]2-c2ccccc2CC3)cc1 |  | inconclusive: 8.2 µM [falling, partial curve]
44 | CCOCC(=O)Nc1ncc(S(=O)(=O)c2ccc([N+](=O)[O-])cc2)s1 |  | inconclusive: 13 µM [falling, partial curve]

— PubChem BioAssay AID504444 (National Center for Advancing Translational Sciences (NCATS), 2011)
